Patent US20240099299A1, “ANTIMICROBIAL COMPOSITIONS AND METHODS FOR THEIR PREPARATION AND USE IN TREATING PLANT DISEASES” (priority 2021, published 2024)
For at least one compound, name, drawing or mass did not settle the structure.

Experiment: Visual monitoring of homogeneity of 11,000 ppm OTC test solutions in pH 2 water
Type: physicochemical
Conditions: for Homogeneity of solution: 11,000 ppm in pH 2 water, 10× magnification
Experimental: Next, OTC solutions were prepared by first reducing the pH of water to pH 2 using hydrochloric acid. 11.0 g of PG-OTC (>95%) and non-sterile, nS-nPG-OTC (putatively 95%) each were dissolved into 1.0 L of the pH 2 water to generate 11,000 ppm test solutions, which then were monitored visually at 10× magnification. […] To elucidate the nonhomogeneous nature of the nS-nPG-OTC solutions, visualization was performed at 60× magnification, as is shown in FIG. 8 and wherein an abundance of actively growing needle-like crystals having lengths of approximately 10-250 μm are visible. These needle-like crystals likely comprise OTC and/or OTC and one or more impurities.

CN(C)[C@@H]1C(O)=C(C(N)=O)C(=O)[C@@]2(O)C(O)=C3C(=O)c4c(O)cccc4[C@@](C)(O)[C@H]3[C@H](O)[C@@H]12 [nS-nPG-OTC, Oxytetracycline]
Length of needle-like crystals in solution (60× magnification, after 48 hours at 75° F.): 10-250 μm | Homogeneity of solution (after 24 hours at 75° F.): substantially nonhomogeneous | Homogeneity of solution (after 48 hours at 75° F.): substantially nonhomogeneous | Homogeneity of solution (after two hours at 100° F.): substantially nonhomogeneous | Homogeneity of solution (immediately upon preparation at 75° F.): moderately nonhomogeneous
